PubChem BioAssay AID1508600 (Functional Genomics Laboratory (NCATS/FGL), 2020)
Out of some 53,000 sequences screened, about 3,700 (7%) were called active.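 Rule for the calls: active = gene knockdowns whose robust z-score for IL-1 alpha signal is at least 2 or at most -2, so actives lie on both sides; inactive = the rest.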 The list shows a part of the results.

Test: Components of the Cytosolic LPS Sensing Pathway: Gene Identification via Genome-wide siRNA Screen;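 note: robust z of the log signal after scaling to non-targeting control siRNA wells of the plate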
Details: RAW264.7 macrophages, IL-1a HTRF, actives lie on both sides, screened at 100 nM (by protocol), cells primed 5 h with Pam3CSK4 first
Procedure, shortened: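 Three distinct siRNAs per gene were tested singly at 100 nM in RAW264.7 macrophages. Following Pam3CSK4 priming and 24 hour LipidA transfection, IL-1a secretion was read by HTRF.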

| Sequence | z-score |
| --- | --- |
| GAGUUCCAGUUUAUCCCUUTT against Klra1 | active: -2.06 |
| GUCUUGCGUGACAACAUCCTT against H4c14 | inactive: 0.718 |
| GGAUAUGGUUAAAGCCAAATT against Zg16 | inactive: -0.172 |
| CGAGCCACACCAAUAGAAGTT against Csnk1g3 | inactive: -0.42 |
| GGCAACUGAAUGUUUCCUATT against Nudt19 | inactive: -1.41 |
| CGGGAAAGCCAAUACCAUGTT against Whamm | inactive: -0.632 |
| AAACUUGGCGUAUCAGGAATT against Gm3696 | inactive: -1.45 |
| GGAGCUUAUGUUCAAAAUATT against Nasp | inactive: 1.79 |
| GGGCUACUUAAUGAGUUACTT against Polg2 | inactive: 1.03 |
| CCAUACAGGGUUAGCUCAUTT against Gm10439 | inactive: -1.89 |
| GGAGAUGGAAGCUAUUUUCTT against Hoxb1 | inactive: -0.169 |
| CCUCUCAGUGGUUGAAAUGTT against Wdr5 | active: -2.46 |
| GGAUGUCAAAGUCUUUAGUTT against Grb10 | inactive: 1.22 |
| GGAGAAGAUAGUCUGGGUCTT against Bcas3 | inactive: 0.624 |
| CGAUGUCAAUGUACUAAUUTT against Rhov | inactive: 0.155 |
| GGUCAAGUAUGAUGCUGAUTT against Fam185a | inactive: -1.38 |
| GGAAUGACAAGCUGAAGAUTT against Zbtb7b | inactive: 0.982 |
| GUGAAAACCGCCAGAUGAATT against Vmn1r19 | inactive: 1.2 |
| GGGAUAUCUAAUCAAAACCTT against St8sia5 | inactive: -0.131 |
| CGGCAACCGGCACUAUAAATT against Pnoc | inactive: 0.231 |
| GCCGGCAGUAAAGAUUCAUTT against Cog2 | inactive: 0.938 |
| GGAUUUCUUCUUUAUCAAGTT against Lrriq3 | inactive: -1.11 |
| GCCUCCUAGAUGAUAUCAGTT against Socs7 | inactive: -1.02 |
| GGAAUUAAGAUCACUCACUTT against Cel | inactive: -1.94 |
| GGAAGGAGAAGGGUAGCAATT against Samd14 | inactive: 0.909 |
| UACCCAUUGUCAAGUUGGATT against Grm4 | inactive: -0.634 |
| GGAGUACCUGGACAUUGUGTT against Dus1l | inactive: 0.844 |
| GGAACGCAAAGAUGACCGUTT against Rnf20 | inactive: 1.46 |
| GCAGGUAAAGGCUCUUAUUTT against Rcbtb1 | inactive: 1.78 |
| GGUACCCAUAUGCAGAGGUTT against A830039N20Rik | inactive: -1.24 |

2 records picked at random from the list so far:

| Sequence | z-score |
| --- | --- |
| GCCGGCAGUAAAGAUUCAUTT against Cog2 | inactive: 0.938 |
| UACCCAUUGUCAAGUUGGATT against Grm4 | inactive: -0.634 |
